Data published in paper PMC9288479.

Protein sequences, listed by entry. Tags and fused reporters are not part of them.
UniProt Q9DBH0: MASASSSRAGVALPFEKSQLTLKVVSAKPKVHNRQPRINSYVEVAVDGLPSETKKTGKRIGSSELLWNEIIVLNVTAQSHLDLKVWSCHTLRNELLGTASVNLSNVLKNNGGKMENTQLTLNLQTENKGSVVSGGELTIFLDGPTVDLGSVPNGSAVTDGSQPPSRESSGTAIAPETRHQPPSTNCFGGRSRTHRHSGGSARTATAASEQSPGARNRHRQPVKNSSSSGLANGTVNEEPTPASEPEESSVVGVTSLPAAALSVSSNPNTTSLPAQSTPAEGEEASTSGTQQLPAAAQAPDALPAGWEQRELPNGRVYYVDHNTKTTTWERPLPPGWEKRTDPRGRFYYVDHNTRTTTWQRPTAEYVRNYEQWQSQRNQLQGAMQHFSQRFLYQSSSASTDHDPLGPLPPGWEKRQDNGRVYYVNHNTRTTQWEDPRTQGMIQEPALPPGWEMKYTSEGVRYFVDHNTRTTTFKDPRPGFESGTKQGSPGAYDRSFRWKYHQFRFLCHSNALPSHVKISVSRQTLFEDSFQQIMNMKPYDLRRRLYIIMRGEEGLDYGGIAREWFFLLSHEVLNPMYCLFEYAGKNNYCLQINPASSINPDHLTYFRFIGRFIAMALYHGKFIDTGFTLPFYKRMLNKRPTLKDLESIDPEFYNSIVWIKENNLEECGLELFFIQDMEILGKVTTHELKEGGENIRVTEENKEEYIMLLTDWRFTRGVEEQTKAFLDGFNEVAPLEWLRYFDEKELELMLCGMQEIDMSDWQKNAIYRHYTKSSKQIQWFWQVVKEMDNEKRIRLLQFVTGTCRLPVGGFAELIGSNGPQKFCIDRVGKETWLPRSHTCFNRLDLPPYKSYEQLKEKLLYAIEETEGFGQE

Molecular target: T1, Flag-tagged murine LAPTM5 (Laptm5) (mouse) (UniProt Q61168)
T1 sequence: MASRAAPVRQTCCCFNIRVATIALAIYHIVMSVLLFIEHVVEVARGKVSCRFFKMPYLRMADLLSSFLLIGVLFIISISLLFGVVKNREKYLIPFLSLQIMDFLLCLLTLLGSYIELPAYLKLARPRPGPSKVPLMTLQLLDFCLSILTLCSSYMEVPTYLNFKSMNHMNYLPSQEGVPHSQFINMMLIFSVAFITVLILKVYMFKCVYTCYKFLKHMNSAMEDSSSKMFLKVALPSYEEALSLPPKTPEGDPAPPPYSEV
Test: affinity purification with mass spectrometry; anti-Flag IP (rabbit IgG as control) from 786-O^LAPTM5 and Renca^Laptm5 cells treated or untreated with 10 ng/mL BMP4 for 60 min; TMT-labeled LC-MS/MS

binding: binds
Substance: WWP2, endogenous in Renca cells (from UniProt Q9DBH0 1-870) (enzyme)

Results are given in words; binding and its absence hold for the method and conditions named. Binding seen in cells or lysates may run through a third protein. Here binding means that the protein was enriched with, or labelled near, the bait; the list need not be complete. Sequences can lack the tags named with a protein.
